This experiment deals with T1, TRIM24, endogenous in mouse liver / primary hepatocytes (mouse (endogenous in primary hepatocytes)) (UniProt Q64127).
T1 sequence: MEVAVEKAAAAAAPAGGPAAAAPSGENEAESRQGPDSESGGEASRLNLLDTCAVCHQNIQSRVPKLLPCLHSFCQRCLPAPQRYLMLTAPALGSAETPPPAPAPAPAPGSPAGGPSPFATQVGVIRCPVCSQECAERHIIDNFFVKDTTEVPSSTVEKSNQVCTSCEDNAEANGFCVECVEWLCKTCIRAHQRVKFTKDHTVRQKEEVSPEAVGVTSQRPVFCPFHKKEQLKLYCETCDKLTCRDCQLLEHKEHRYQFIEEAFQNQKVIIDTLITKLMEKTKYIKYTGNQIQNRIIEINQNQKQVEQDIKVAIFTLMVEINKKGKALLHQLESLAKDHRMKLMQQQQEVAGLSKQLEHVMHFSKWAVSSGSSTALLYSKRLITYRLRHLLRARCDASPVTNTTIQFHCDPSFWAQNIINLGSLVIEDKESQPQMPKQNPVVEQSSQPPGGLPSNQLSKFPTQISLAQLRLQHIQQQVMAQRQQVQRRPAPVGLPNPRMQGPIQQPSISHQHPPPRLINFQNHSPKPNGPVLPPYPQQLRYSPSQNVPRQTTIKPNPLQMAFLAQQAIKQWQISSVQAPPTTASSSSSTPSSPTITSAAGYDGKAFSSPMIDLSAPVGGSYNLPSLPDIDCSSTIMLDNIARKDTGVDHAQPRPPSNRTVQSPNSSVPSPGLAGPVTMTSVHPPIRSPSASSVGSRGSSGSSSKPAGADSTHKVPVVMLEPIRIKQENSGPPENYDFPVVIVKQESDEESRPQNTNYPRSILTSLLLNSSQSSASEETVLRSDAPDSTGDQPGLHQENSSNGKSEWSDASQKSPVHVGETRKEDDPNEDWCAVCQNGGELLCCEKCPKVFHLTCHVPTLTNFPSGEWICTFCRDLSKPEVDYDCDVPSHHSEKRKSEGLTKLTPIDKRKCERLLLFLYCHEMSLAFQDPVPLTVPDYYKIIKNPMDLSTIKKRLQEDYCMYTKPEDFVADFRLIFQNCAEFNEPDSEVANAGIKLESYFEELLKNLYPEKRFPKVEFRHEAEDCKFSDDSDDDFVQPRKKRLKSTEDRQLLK
As to the kind of experiment: co-IP; endogenous TRIM24 immunoprecipitated with the TRIM24 antibody from lysates of mouse primary hepatocytes (text: liver lysates); endogenous P-body components detected by immunoblotting.

No constants are given. Whether binding was seen depends on the method and setting. Binding seen in cells or lysates may run through a third protein. Binding calls can cover weak binding; strength is not graded here.

Regarding “DCP1, endogenous in mouse liver / primary hepatocytes”, the binding result was “binds”.

(Values after paper PMC9270398.)
